This is an account of results in US20250354175, “ATTP MV4-DERIVED SITE-SPECIFIC RECOMBINATION AND ITS USE FOR INTEGRATION OF SEQUENCE OF INTEREST” (INSTITUT NATIONAL DE RECHERCHE POUR L'AGRICULTURE, …, published 2025).

Data set [1] concerns T1, mv4Int (369 aa integrase) (Lactobacillus delbrueckii bacteriophage mv4).
T1 sequence: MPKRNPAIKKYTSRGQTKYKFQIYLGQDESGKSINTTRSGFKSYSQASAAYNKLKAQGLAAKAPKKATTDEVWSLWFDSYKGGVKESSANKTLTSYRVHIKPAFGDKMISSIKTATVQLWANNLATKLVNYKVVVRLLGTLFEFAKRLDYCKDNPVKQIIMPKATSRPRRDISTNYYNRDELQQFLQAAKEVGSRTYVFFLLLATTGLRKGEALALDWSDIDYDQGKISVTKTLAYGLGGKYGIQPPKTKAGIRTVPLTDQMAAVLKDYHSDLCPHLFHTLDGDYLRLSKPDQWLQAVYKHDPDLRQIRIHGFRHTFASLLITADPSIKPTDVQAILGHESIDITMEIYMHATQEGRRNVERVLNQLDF
Kind of data set: enzyme reaction in vitro. Particulars: purified recombinant protein, protein details: expressed from pET15b, nickel affinity purified.

The test system is the same in data set [2]. Kind of data set: EMSA. Particulars: complexes I, II, III at much lower efficiency than WT; purified recombinant protein; protein details: expressed from pET15b, nickel affinity purified; label: Cy3 on bottom strand; variant of COC' WT core-attP 35 bp. On the technique in general: In EMSA bound probe runs differently from free probe, usually more slowly.

Setting [3] is: only with adapted attP, label: Cy3.

Weaker means in comparison with the reference protein, sequence or condition of that experiment. Where a protein sequence is shown, tags need not be part of it. For part of these data: Construct, isoform or probe ends are uncertain for at least one entry.

Turning to “AAAGAAAAGGTTTTCTCCTTAATCAAAGCAATAATCCC (double strand) [attP lacZ3 overlap with attB lacZ3]”, in data set [1] (recombination with attB lacZ3 detectable only by PCR, very low), the “activity on this sequence” value is reported as “less active”.
Regarding “AAAGAATGCCAACTCTCCTTAATCAAAGCAATAATCCC (double strand) [attP lacZ2 overlap with attB lacZ2]”, the “activity on this sequence” value in data set [1] (recombination with attB lacZ2 detectable only by PCR) is given as “less active”.
With “AAAGAATTTCGGCTCTCCTTAATCAAAGCAATAATCCC (double strand) [attP lacZ1 overlap with attB lacZ1]”, the “activity on this sequence” value in data set [1] (recombination with attB lacZ1 detectable only by PCR) is recorded as “less active”.
For “CCCCTTGACTCCTTTTAAAGGTCAAATGGTATCC (double strand) [attB L. lactis tRNASer]”, in data set [1] (setting [3]), the “activity on this sequence” value is recorded as “active”.
As for “CCCCTTGTCTCCTTAGAAAGGTCAAATGGTATC (double strand) [attB L. reuteri tRNASer]”, the “activity on this sequence” value in data set [1] (setting [3]) is on record as “active”.
Take “CCCGCTAGCTCCTTTATAAGGTCAAATGGTATC (double strand) [attB L. mesenteroides tRNASer]”: the “activity on this sequence” value in data set [1] (only with adapted attP, lower efficiency, label: Cy3) is recorded as “less active”.
Turning to “CCCGTCCTTTCCTTAACAAGGTCAAATGGTATC (double strand) [attB S. mutans tRNASer]”, the “activity on this sequence” value in data set [1] (setting [3]) is recorded as “active”.
In the case of “GGTATTGGAACCCGCCTGTACTCTCCTTGCGTAAC (double strand) [XOC' (C mutated, B'/C' site intact)]”, in data set [2], the binding result is “binds more weakly”.
Turning to “TTCAAATCCTGTACTCTCCTT (double strand) [attB WT mv4]”, the “activity on this sequence” value in data set [1] (recombination with attP WT, 42 C, label: Cy3) is given as “active”.
